Measured values: PubChem BioAssay AID1347423 (Functional Genomics Laboratory (NCATS/FGL), 2020)
The campaign covered roughly 52,000 sequences. About 210 (0.4%) were called active.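 Rule for the calls: active = gene whose silencing raises cell survival under the drug, median off-target-corrected z-score across its silencing RNAs 2 or more; inactive = the rest.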 The list shows a part of the results.

experiment: Resistance to Poly (ADP-Ribose) Polymerase inhibitor: Gene Identification via Genome-wide siRNA Screen; conditions: mouse BRCA2 R2336H ES cells, olaparib, CellTiter-Glo viability; hits give high values
Summary of the method: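 Mouse BRCA2 R2336H ES cells were reverse-transfected with siRNA (20 nM final), treated at 48 h with 500 nM olaparib, and read by CellTiter-Glo after 72 h. Scores: MAD-based z per siRNA, median per gene, seed off-target correction.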

Sequence	z-score
CCUUCUAGUACAAAAGUUGTT against 5430433L24Rik	inactive: -0.985
GGUGAUAGGAGAGAGAAAGTT against 5730472N09Rik	inactive: -1.23
GUACCUCAGAGCUCUGCAUTT against Helt	inactive: -1.32
GAUUUGAGACCCAGAUCAUTT against Gzmm	inactive: 2.56
GGUCUUUUUGCCUGGUUUUTT against Akap10	inactive: -0.251
GGACAUAGAGAACAUCAUCTT against Cabp7	inactive: -0.693
GGAACCAUAAAUGUCACUUTT against 9130411I17Rik	inactive: 0.893
GGAAGAGCUGGAGUCAGAUTT against BC023488	inactive: -0.208
GGAAAGGAGAACAAAGUUCTT against Tnfsf8	inactive: 0.438
GGAAGGUAUUACGUCAAAUTT against Sec24a	inactive: -0.0956
GGGUUGUGGUUAUCAAAUATT against C030003D03Rik	inactive: 1.54
GCAAGAACUAUUGCUAUUUTT against V1rh14	inactive: -0.996
GCGGCACUUUAUCAUUAUCTT against Hint3	inactive: 0.0904
GGUAUAUUGGGACCUUUAUTT against Fcgr1	inactive: -0.849
GGCAUUUCAUGUAGCUAAATT against 1700067I02Rik	inactive: 0.833
GGUGGAGUCUACAAUUCUCTT against Ctsb	inactive: -0.176
UCAGUCAUGCCUUGAGGCUTT against MGC69750	inactive: -0.106
GGUAAUUGGGCGACACCAUTT against Sh3bgrl2	inactive: -0.827
GGAGGAAUUCUCCAAGCUGTT against Hsd3b1	inactive: -1.41
GCGACAUGGGUUAAAAGAATT against Nr4a3	inactive: -0.49
CCCUGGGAAGUGGAUUCAUTT against Olfr694	inactive: 1.15
GUGAGACUAAGUUACGCGATT against Olfr1501	inactive: 0.734
GGAGUUUUUACAGAAAAUGTT against Scin	inactive: 0.226
CCAUUAGCUCCAUUCUUUCTT against Atp6v0d2	inactive: -0.0501
GGUUCAGAUCCAUCACUCGTT against Rab39b	inactive: -0.486
GGUGUCAAAUAGCUGAAACTT against 6330412F12Rik	inactive: 0.121

Sequence	z-score
GCCAUCAGAAUUCGAUACATT against 2900092C05Rik	inactive: 0.74
CCAGUUAUCUAUCUAGUGUTT against Sash1	inactive: 0.47
GCUUGUGGAUUUUUAGUGATT against Dufd1	inactive: 0.261
GGAUGAACUCCAGAACAUCTT against Gmfg	inactive: 0.405
GGAUAACUUGCCAAAGUCUTT against Alas1	inactive: -0.207
GGGAAAAGGUCAGUGAAGUTT against 2310046O06Rik	inactive: -0.456
GGCAAGUCCUAGUUUUGUUTT against Dfy	inactive: 0.508
GGCAUUGUCCUACAUGAGCTT against Astl	inactive: 0.983
GGAACAUCGUGACUUUAUATT against Kist	inactive: 1.36
GGUGAGAACUUAAUCUUGGTT against Tax1bp3	inactive: 0.147
GGUGUCCUAUGAUUACAGCTT against A830059I20Rik	inactive: -1.62
GGUUUUCUUCUUCAUAGCUTT against Olfr125	inactive: 1.54
CCUUUGUGUAUUCAAGGAGTT against AI194308	inactive: -0.237
GGAUCUGAAUGACUUUGUGTT against 5730467H21Rik	inactive: 0.632
GCUACUAAUUGAUUAGUUGTT against 4930478A21Rik	inactive: 0.259
GGAAAGAGGGAAACUAAUUTT against D10Bwg1364e	inactive: 0.0946
CCACUAUAGUCCUUAGUGUTT against Ugt2b5	inactive: -0.31
CCGACGAUUCCUGAAGCUATT against Tada3l	inactive: -1.29
GCUAAGACUCUUGAAUCAGTT against Suhw4	inactive: 1.07
GGGAAAUCAUCUUCUAUAATT against Pde6c	inactive: 0.744
GCAAAAGACGAGUGAGCCUTT against Hoxa9	inactive: 1.3
CGGGCUGUUCAGAAAUCGATT against Trmt1	inactive: 0.313
GGAACAUUCUCGACUUCCCTT against Thop1	inactive: -0.0863
GCACUGGAAGGCCAAUUAGTT against BC022692	inactive: -0.00984
CCUGUGGAUUACGGCCUCATT against Ube3b	inactive: 0.122
CCUGGUCUUACACCUGUCATT against Spire1	inactive: -0.692

Sequence	z-score
GGAGAAGUUGAAGUCCUUCTT against Msr1	inactive: -0.521
GGCCUUGGGAAAUUACAGGTT against Wnt6	inactive: -0.635
ACACUGGAGUGAACAACGUTT against Gm741	inactive: 0.71
ACUAGACUGAACUACCUGATT against Gm1313	inactive: 0.284
CCCAUACUAAAAUUGUUGATT against Adam29	active: 2.32
GGUUGGAAAUUGGACAGGATT against Col6a3	inactive: 0.0572
GCUGAAUGAGAUCUUGAAATT against Hand2	inactive: 1.44
GGGUAUGGGAGAAUGAUUATT against Elovl3	inactive: 0.693
GGGAAAAGUGACUAGGCUUTT against Ngb	inactive: 0.706
CCAGACACGCAUUGCGAAATT against H2-M2	inactive: 0.844
GGACUCAAGCUAGAACACATT against Col16a1	inactive: 0.00287
CCGAAUUGAAAUCACAAGCTT against Nup43	inactive: 0.478
GCAUCCCGACUACAAGUACTT against Sox21	inactive: -0.084
GACAAAACUCAUUGUUCUUTT against Taf11	inactive: -0.128
GCUCUGACCAUCCUUAGCUTT against Olfr938	inactive: -1.14
GCUUAAAGCUAACCUAAUGTT against Dyrk3	inactive: 0.0765
GGGAAGAUCAGGGAUGCUCTT against 1810055D05Rik	inactive: -0.339
GCAUCACUUACAGAUAGACTT against Olfr305	inactive: 1.75
GGCAUUCGAAGGGACAGAUTT against Arg2	inactive: -0.343
GGUUUCUUCAUCUUGUAUUTT against 9430022F06Rik	inactive: 0.485
GGACAGACUGAAUGAGCAGTT against 2210404D11Rik	inactive: 0.896
GGAAACGUAUUUAAAUCCATT against Zfp312	inactive: 1.13
GGAGAUCCCGUCACUAUCUTT against BC027309	inactive: 0.109
GGAGAUGACGUGAAAACAATT against Srf	inactive: 1.93
GGAUGUGUCAGGAAAAUAGTT against Ctsm	inactive: -1.29
GGUGUCUAUCUUCAACCCATT against Olfr132	inactive: -0.0869

An excerpt of these results, comma-delimited:
Sequence,z-score
GGGAAGAUCAGGGAUGCUCTT against 1810055D05Rik,inactive: -0.339
GGUGUCUAUCUUCAACCCATT against Olfr132,inactive: -0.0869

More entries

Sequence	z-score
GCAUGAAAAGGUAUUACUCTT against Sec15l1	inactive: 0.131
CCAUUUUAGCCAUCUGGUATT against Slc5a4b	inactive: 1.35
CCAGGGUGGUCUUUUGAAGTT against Sui1-rs1	inactive: 0.537
GGAGAAAAGCAAUAAUGAATT against Klf12	inactive: -0.103
CCCAAAUGAUUGGAUCUGUTT against Tnfsf5	inactive: -0.393
GGGUUACUGCUUUGAUAGUTT against Tacstd1	inactive: 0.16
CCGAAUUCGGUUUAAGCUCTT against Gtf2ird1	inactive: 0.247
GGUAGAUGAACUUUAAAGATT against Syt13	inactive: 1.37
GGCUGAGAAGCAGACUUCCTT against BC056929	inactive: 0.0329
GGUGAAAAUGACCUGGUGATT against 4732429D16Rik	inactive: 0.841
GGAGAUUUACCGCUACAGUTT against Scrib	inactive: 0.424
GGAAAGAGAAAAACAACCATT against Cngb3	inactive: -0.0221
GGACAUCAUAUUCGUUUUCTT against C130026L21Rik	inactive: -0.436
GGAAAUAGUACAGAAACCATT against Mcph1	inactive: 0.14
GGCACACUCUCGCAUCUAATT against Lcn4	inactive: -3.28
CCAGGUUGUAAAAACAGUUTT against Rdx	inactive: -0.213
CCAAAACCGCACAGUAGUATT against Olfr1065	inactive: -1.96
AAACGAUUCUGCAUUUAGCTT against Crh	inactive: 1.04
GGCUGAUUUAUACUGGAAATT against 1110020A09Rik	inactive: 0.803
GCCUGGACAAGUUUCUGAATT against Olfr726	inactive: 0.482
GGCAGGUGUCAGAAAUUUCTT against 9030221M09Rik	inactive: 0.0961
GCAGUUACCAGAGAUUGUCTT against AI790205	inactive: -2.16
GCAGCUUGAGUUCUCGAAUTT against C030030A07Rik	inactive: -0.229
GGAAGUGGUUUGAGCCAUCTT against Slc37a4	inactive: -0.899
CGAUUCUGAAGCUCCCAUCTT against Olfr684	inactive: 0.786
GCCGCCUCAAACUGGAUAATT against Hdac7a	inactive: -0.203

Reformatted field by field: entries from further up
CCGAAUUCGGUUUAAGCUCTT against Gtf2ird1
  z-score: inactive: 0.247
GGUAGAUGAACUUUAAAGATT against Syt13
  z-score: inactive: 1.37
GGCUGAGAAGCAGACUUCCTT against BC056929
  z-score: inactive: 0.0329
GGUGAAAAUGACCUGGUGATT against 4732429D16Rik
  z-score: inactive: 0.841
